Data: patent US20070041901

The chains behind the UniProt entries cited, without tags or fusion partners. Where a name states a change or a piece, a line headed by the entry shows the natural chain unless it says otherwise.
UniProt Q04609: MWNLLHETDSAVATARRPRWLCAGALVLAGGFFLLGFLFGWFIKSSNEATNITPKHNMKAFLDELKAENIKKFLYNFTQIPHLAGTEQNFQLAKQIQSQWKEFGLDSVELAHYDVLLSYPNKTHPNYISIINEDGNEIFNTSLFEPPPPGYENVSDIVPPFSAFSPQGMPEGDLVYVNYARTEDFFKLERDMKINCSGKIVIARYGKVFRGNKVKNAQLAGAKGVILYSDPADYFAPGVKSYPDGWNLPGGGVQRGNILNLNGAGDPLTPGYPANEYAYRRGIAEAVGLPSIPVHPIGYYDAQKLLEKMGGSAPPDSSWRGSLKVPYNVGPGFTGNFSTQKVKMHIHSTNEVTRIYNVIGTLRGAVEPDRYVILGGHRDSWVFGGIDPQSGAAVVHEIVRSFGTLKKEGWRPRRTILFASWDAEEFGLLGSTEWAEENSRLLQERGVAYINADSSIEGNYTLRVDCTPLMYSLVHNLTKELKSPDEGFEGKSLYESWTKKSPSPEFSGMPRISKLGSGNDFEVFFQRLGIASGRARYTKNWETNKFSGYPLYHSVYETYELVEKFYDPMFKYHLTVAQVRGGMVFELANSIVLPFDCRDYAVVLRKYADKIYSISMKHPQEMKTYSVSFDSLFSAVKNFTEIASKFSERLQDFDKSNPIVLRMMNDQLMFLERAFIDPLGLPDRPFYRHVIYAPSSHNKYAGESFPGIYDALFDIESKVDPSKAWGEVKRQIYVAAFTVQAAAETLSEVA

Key:
[1] = target: PSMA (endogenous, LNCaP cells) (Homo sapiens) (UniProt Q04609); assay: activity in cells; conditions: 2'-OMe A, C, U; 2'-OH G; vinblastine hydrazide; no LNCaP killing over entire concentration range; protein on the cell surface; variant of ARC725; dose not given here
[2] = target: PSMA (endogenous, LNCaP cells) (Homo sapiens) (UniProt Q04609); assay: competition with a labelled probe; conditions: 3'-inverted dT, competes with fluorescent anti-PSMA antibody on LNCaP cells (FACS), protein on the cell surface, label: 5'-C6-FAM, variant of A9 (xPSM-A9)
[3] = target: PSMA (endogenous, LNCaP cells) (Homo sapiens) (UniProt Q04609); assay: flow cytometry; conditions: 2'-F C and U, protein on the cell surface
[4] = target: PSMA (prostate-specific membrane antigen) extracellular domain (Homo sapiens) (UniProt Q04609); assay: inhibition of the protein; conditions: ribo-free: 2'-OMe, 2'-F, 2'-deoxy, one 2'-deoxy phosphorothioate (U-s-dG); 3'-inverted dT, positions as printed; retained full NAALADase inhibition activity relative to unmodified ARC591; purified recombinant protein; variant of ARC591; dose not given here

## CUACUACACAUGGGUCGGGUGAGUGGCAAAGGAAUAGUAG [ARC725-vinblastine conjugate]
[1]
  functional effect of the aptamer: not active

## GGAGGACCGAAAAAGACCUGACUUCUAUACUAAGUCUACGUUCCUCC [ARC710]
[2]; 2'-F C and U, 2'-OH A and G
  binding result: binds

## GGAGGACCGAAAAAGACCUGACUUCUAUACUAAGUCUACGUUCCUCCA [ARC591]
[3]; 2'-OH A and G, variant of A9 (xPSM-A9)
  binding result: binds

## CGGACCGAAAAAGACCUGACUUCUAUACUAAGUCUACGUUCCG [ARC711]
[2]; 2'-F, 2'-OMe and 2'-OH as printed (mCmGmGmAfCfCmGAAAAmAmGmAmCfCfUGAfCfUfUfCfUAfUAfCfUAAmGmUmCmUAfCmGfUmUmCmCmG-3T)
  binding result: binds

## CGGACCGAACAAGGCCUGACUUCUAUACUAAGCCUACGUUCCG [ARC1725]
[4]
  functional effect of the aptamer: active

## GGGAGGACGAUGCGGACCGAAAAAGACCUGACUUCUAUACUAAGUCUACGUUCCCAGACGACUCGCCCGA [A9 (xPSM-A9)]
[3]; 2'-OH A and G (rRfY), binds LNCaP (PSMA+), not PC-3 (PSMA-), competed by anti-PSMA antibody, label: fluorescent
  binding result: binds

For part of these data: A negative result means that nothing was seen under these conditions. For part of these data: Results from cells or extracts need not show a direct contact.
